The values that follow come from publication doi:10.1101/2022.12.08.519563.

Amino acid sequences for entries named in this document (tags omitted).
UniProt P47929: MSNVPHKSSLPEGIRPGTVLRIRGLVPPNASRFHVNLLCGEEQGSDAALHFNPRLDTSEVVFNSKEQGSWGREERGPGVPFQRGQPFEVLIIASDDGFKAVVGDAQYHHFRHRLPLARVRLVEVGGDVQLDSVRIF
UniProt O95817: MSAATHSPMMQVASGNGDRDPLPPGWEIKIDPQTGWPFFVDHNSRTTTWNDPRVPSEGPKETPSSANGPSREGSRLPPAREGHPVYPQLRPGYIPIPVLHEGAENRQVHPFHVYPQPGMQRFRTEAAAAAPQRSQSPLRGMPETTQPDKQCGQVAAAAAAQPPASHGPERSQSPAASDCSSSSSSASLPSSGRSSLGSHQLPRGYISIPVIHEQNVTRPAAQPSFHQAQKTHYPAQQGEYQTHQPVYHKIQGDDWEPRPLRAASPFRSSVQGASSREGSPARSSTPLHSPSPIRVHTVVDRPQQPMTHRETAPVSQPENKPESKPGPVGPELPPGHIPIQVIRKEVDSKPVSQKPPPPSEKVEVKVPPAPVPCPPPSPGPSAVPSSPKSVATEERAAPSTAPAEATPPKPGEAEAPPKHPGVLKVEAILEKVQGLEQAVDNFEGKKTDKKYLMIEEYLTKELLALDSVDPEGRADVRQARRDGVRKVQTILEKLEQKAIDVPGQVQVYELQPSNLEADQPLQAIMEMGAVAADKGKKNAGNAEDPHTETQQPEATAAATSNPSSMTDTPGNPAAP
UniProt Q9NT62: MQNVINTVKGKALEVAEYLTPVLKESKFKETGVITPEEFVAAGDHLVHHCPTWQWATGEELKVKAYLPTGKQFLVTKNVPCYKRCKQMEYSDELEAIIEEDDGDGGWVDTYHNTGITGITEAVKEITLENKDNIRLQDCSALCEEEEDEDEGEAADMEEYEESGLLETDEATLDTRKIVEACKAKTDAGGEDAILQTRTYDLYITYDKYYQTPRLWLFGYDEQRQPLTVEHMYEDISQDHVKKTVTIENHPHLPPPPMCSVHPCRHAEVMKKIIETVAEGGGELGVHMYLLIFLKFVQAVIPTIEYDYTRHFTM
UniProt Q99871: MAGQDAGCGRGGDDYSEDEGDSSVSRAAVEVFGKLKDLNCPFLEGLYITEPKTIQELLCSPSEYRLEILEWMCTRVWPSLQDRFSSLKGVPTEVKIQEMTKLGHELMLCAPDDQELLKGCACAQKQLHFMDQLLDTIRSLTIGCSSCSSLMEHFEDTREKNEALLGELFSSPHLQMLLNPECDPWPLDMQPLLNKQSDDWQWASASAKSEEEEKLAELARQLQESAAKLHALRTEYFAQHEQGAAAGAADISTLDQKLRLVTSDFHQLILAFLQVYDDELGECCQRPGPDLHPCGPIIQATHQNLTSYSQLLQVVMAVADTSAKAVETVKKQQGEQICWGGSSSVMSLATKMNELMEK

Common to all, as to assay: proximity labelling
For assay [1], the target named is T1, APEX-tagged HspB2 (human) (UniProt Q16082).
T1 sequence: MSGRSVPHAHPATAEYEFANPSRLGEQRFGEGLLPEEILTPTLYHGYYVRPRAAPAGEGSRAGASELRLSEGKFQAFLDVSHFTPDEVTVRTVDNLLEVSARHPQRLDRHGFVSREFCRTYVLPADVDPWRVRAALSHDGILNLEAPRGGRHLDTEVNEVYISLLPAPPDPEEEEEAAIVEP

The target in assay [2] is T1, APEX-tagged HspB2 (human). The source holds these as a separate data set.
In assay [3] the target is T2, APEX-tagged HspB5-STD/RG (human) (UniProt P02511).
T2 sequence: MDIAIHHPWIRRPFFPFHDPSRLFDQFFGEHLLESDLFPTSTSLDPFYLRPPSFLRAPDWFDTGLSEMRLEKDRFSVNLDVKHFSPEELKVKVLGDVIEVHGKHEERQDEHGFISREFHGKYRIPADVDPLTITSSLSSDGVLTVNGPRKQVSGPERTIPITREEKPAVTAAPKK

Assay [4] addresses T1, APEX-tagged HspB2 (human). The source holds these as a separate data set.
Assay [5] concerns the target T1, APEX-tagged HspB2 (human). This is another data set of the same source.

Where two headings read alike, the source gives them in different places. Results are given in words; binding and its absence hold for the method and conditions named. Binding seen in cells or lysates may run through a third protein. Here binding means that the protein was enriched with, or labelled near, the bait; the list need not be complete. Sequences can lack the tags named with a protein.

As for LGALS7 (from UniProt P47929 1-136), the binding entry in assay [1] is “binds”.

Regarding BAG3 (from UniProt O95817 1-575), the binding result in assay [2], in assay [1] and in assay [3] was “binds” in each case.

For ATG3 (from UniProt Q9NT62 1-314), the binding result in assay [1] is “binds”.

With SQSTM1 (from UniProt Q13501 1-440), the binding result in assay [1] and in assay [3] was “binds” in each case.

In the case of HAUS7 (from UniProt Q99871 1-358), the binding result in assay [1] and in assay [4] was “binds” each time.

B1: MEA1 (protein, UniProt Q16626 1-185)
chain: MGPERHLSGAPARMATVVLGGDTMGPERIFPNQTEELGHQGPSEGTGDWSSEEPEEEQEETGSGPAGYSYQPLNQDPEQEEVELAPVGDGDVVADIQDRIQALGLHLPDPPLESEDEDEEGATALNNHSSIPMDPEHVELVKRTMAGVSLPAPGVPAWAREISDAQWEDVVQKALQARQASPAWK
Consider B1, for which the binding result in assay [5] is “binds”.

B2: HspB3 (protein, UniProt Q12988 1-150)
chain: MAKIILRHLIEIPVRYQEEFEARGLEDCRLDHALYALPGPTIVDLRKTRAAQSPPVDSAAETPPREGKSHFQILLDVVQFLPEDIIIQTFEGWLLIKAQHGTRMDEHGFISRSFTRQYKLPDGVEIKDLSAVLCHDGILVVEVKDPVGTK
Regarding B2, the binding result in assay [5] is recorded as “binds”.
